No constants are given. Whether binding was seen depends on the method and setting. In cells and extracts the contact can be indirect. Here binding means that the protein was enriched with, or labelled near, the bait; the list need not be complete. Tags and fused reporters may be left off the sequences shown.
B1: Inter-alpha-trypsin inhibitor heavy chain H2 (protein, UniProt P19823 55-702)
chain: SLPGESEEMMEEVDQVTLYSYKVQSTITSRMATTMIQSKVVNNSPQPQNVVFDVQIPKGAFISNFSMTVDGKTFRSSIKEKTVGRALYAQARAKGKTAGLVRSSALDMENFRTEVNVLPGAKVQFELHYQEVKWRKLGSYEHRIYLQPGRLAKHLEVDVWVIEPQGLRFLHVPDTFEGHFDGVPVISKGQQKAHVSFKPTVAQQRICPNCRETAVDGELVVLYDVKREEKAGELEVFNGYFVHFFAPDNLDPIPKNILFVIDVSGSMWGVKMKQTVEAMKTILDDLRAEDHFSVIDFNQNIRTWRNDLISATKTQVADAKRYIEKIQPSGGTNINEALLRAIFILNEANNLGLLDPNSVSLIILVSDGDPTVGELKLSKIQKNVKENIQDNISLFSLGMGFDVDYDFLKRLSNENHGIAQRIYGNQDTSSQLKKFYNQVSTPLLRNVQFNYPHTSVTDVTQNNFHNYFGGSEIVVAGKFDPAKLDQIESVITATSANTQLVLETLAQMDDLQDFLSKDKHADPDFTRKLWAYLTINQLLAERSLAPTAAAKRRITRSILQMSLDHHIVTPLTSLVIENEAGDERMLADAPPQDPSCCSGALYYGSKVVPDSTPSWANPSPTPVISMLAQGSQVLESTPPPHVMRVEND
B2: Vitamin K-dependent protein S (protein, UniProt P07225 42-676)
chain: ANSLLEETKQGNLERECIEELCNKEEAREVFENDPETDYFYPKYLVCLRSFQTGLFTAARQSTNAYPDLRSCVNAIPDQCSPLPCNEDGYMSCKDGKASFTCTCKPGWQGEKCEFDINECKDPSNINGGCSQICDNTPGSYHCSCKNGFVMLSNKKDCKDVDECSLKPSICGTAVCKNIPGDFECECPEGYRYNLKSKSCEDIDECSENMCAQLCVNYPGGYTCYCDGKKGFKLAQDQKSCEVVSVCLPLNLDTKYELLYLAEQFAGVVLYLKFRLPEISRFSAEFDFRTYDSEGVILYAESIDHSAWLLIALRGGKIEVQLKNEHTSKITTGGDVINNGLWNMVSVEELEHSISIKIAKEAVMDINKPGPLFKPENGLLETKVYFAGFPRKVESELIKPINPRLDGCIRSWNLMKQGASGIKEIIQEKQNKHCLVTVEKGSYYPGSGIAQFHIDYNNVSSAEGWHVNVTLNIRPSTGTGVMLALVSGNNTVPFAVSLVDSTSEKSQDILLSVENTVIYRIQALSLCSDQQSHLEFRVNRNNLELSTPLKIETISHEDLQRQLAVLDKAMKAKVATYLGGLPDVPFSATPVNAFYNGCMEVNINGVQLDLDEAISKHNDIRAHSCPSVWKKTKNS
B3: Prolactin-inducible protein (protein, UniProt P12273 29-146)
chain: QDNTRKIIIKNFDIPKSVRPNDEVTAVLAVQTELKECMVVKTYLISSIPLQGAFNYKYTACLCDDNPKTFYWDFYTNRTVQIAAVVDVIRELGICPDDAAVIPIKNNRFYTIEILKVE
B4: Ceruloplasmin (protein, UniProt P00450 20-1065)
chain: KEKHYYIGIIETTWDYASDHGEKKLISVDTEHSNIYLQNGPDRIGRLYKKALYLQYTDETFRTTIEKPVWLGFLGPIIKAETGDKVYVHLKNLASRPYTFHSHGITYYKEHEGAIYPDNTTDFQRADDKVYPGEQYTYMLLATEEQSPGEGDGNCVTRIYHSHIDAPKDIASGLIGPLIICKKDSLDKEKEKHIDREFVVMFSVVDENFSWYLEDNIKTYCSEPEKVDKDNEDFQESNRMYSVNGYTFGSLPGLSMCAEDRVKWYLFGMGNEVDVHAAFFHGQALTNKNYRIDTINLFPATLFDAYMVAQNPGEWMLSCQNLNHLKAGLQAFFQVQECNKSSSKDNIRGKHVRHYYIAAEEIIWNYAPSGIDIFTKENLTAPGSDSAVFFEQGTTRIGGSYKKLVYREYTDASFTNRKERGPEEEHLGILGPVIWAEVGDTIRVTFHNKGAYPLSIEPIGVRFNKNNEGTYYSPNYNPQSRSVPPSASHVAPTETFTYEWTVPKEVGPTNADPVCLAKMYYSAVEPTKDIFTGLIGPMKICKKGSLHANGRQKDVDKEFYLFPTVFDENESLLLEDNIRMFTTAPDQVDKEDEDFQESNKMHSMNGFMYGNQPGLTMCKGDSVVWYLFSAGNEADVHGIYFSGNTYLWRGERRDTANLFPQTSLTLHMWPDTEGTFNVECLTTDHYTGGMKQKYTVNQCRRQSEDSTFYLGERTYYIAAVEVEWDYSPQREWEKELHHLQEQNVSNAFLDKGEFYIGSKYKKVVYRQYTDSTFRVPVERKAEEEHLGILGPQLHADVGDKVKIIFKNMATRPYSIHAHGVQTESSTVTPTLPGETLTYVWKIPERSGAGTEDSACIPWAYYSTVDQVKDLYSGLIGPLIVCRRPYLKVFNPRRKLEFALLFLVFDENESWYLDDNIKTYSDHPEKVNKDDEEFIESNKMHAINGRMFGNLQGLTMHVGDEVNWYLMGMGNEIDLHTVHFHGHSFQYKHRGVYSSDVFDIFPGTYQTLEMFPRTPGIWLLHCHVTDHIHAGMETTYTVLQNEDTKSG
B5: Protein AMBP (protein, UniProt P02760 20-352)
chain: GPVPTPPDNIQVQENFNISRIYGKWYNLAIGSTCPWLKKIMDRMTVSTLVLGEGATEAEISMTSTRWRKGVCEETSGAYEKTDTDGKFLYHKSKWNITMESYVVHTNYDEYAIFLTKKFSRHHGPTITAKLYGRAPQLRETLLQDFRVVAQGVGIPEDSIFTMADRGECVPGEQEPEPILIPRVRRAVLPQEEEGSGGGQLVTEVTKKEDSCQLGYSAGPCMGMTSRYFYNGTSMACETFQYGGCMGNGNNFVTEKECLQTCRTVAACNLPIVRGPCRAFIQLWAFDAVKGKCVLFPYGGCQGNGNKFYSEKECREYCGVPGDGDEELLRFSN
B6: Arachidonate 12-lipoxygenase, 12R-type (protein, UniProt O75342 1-701)
chain: MATYKVRVATGTDLLSGTRDSISLTIVGTQGESHKQLLNHFGRDFATGAVGQYTVQCPQDLGELIIIRLHKERYAFFPKDPWYCNYVQICAPNGRIYHFPAYQWMDGYETLALREATGKTTADDSLPVLLEHRKEEIRAKQDFYHWRVFLPGLPSYVHIPSYRPPVRRHRNPNRPEWNGYIPGFPILINFKATKFLNLNLRYSFLKTASFFVRLGPMALAFKVRGLLDCKHSWKRLKDIRKIFPGKKSVVSEYVAEHWAEDTFFGYQYLNGVNPGLIRRCTRIPDKFPVTDDMVAPFLGEGTCLQAELEKGNIYLADYRIMEGIPTVELSGRKQHHCAPLCLLHFGPEGKMMPIAIQLSQTPGPDCPIFLPSDSEWDWLLAKTWVRYAEFYSHEAIAHLLETHLIAEAFCLALLRNLPMCHPLYKLLIPHTRYTVQINSIGRAVLLNEGGLSAKGMSLGVEGFAGVMVRALSELTYDSLYLPNDFVERGVQDLPGYYYRDDSLAVWNALEKYVTEIITYYYPSDAAVEGDPELQSWVQEIFKECLLGRESSGFPRCLRTVPELIRYVTIVIYTCSAKHAAVNTGQMEFTAWMPNFPASMRNPPIQTKGLTTLETFMDTLPDVKTTCITLLVLWTLSREPDDRRPLGHFPDIHFVEEAPRRSIEAFRQRLNQISHDIRQRNKCLPIPYYYLDPVLIENSISI
B7: Alpha-2-macroglobulin (protein, UniProt P01023 24-1474)
chain: SVSGKPQYMVLVPSLLHTETTEKGCVLLSYLNETVTVSASLESVRGNRSLFTDLEAENDVLHCVAFAVPKSSSNEEVMFLTVQVKGPTQEFKKRTTVMVKNEDSLVFVQTDKSIYKPGQTVKFRVVSMDENFHPLNELIPLVYIQDPKGNRIAQWQSFQLEGGLKQFSFPLSSEPFQGSYKVVVQKKSGGRTEHPFTVEEFVLPKFEVQVTVPKIITILEEEMNVSVCGLYTYGKPVPGHVTVSICRKYSDASDCHGEDSQAFCEKFSGQLNSHGCFYQQVKTKVFQLKRKEYEMKLHTEAQIQEEGTVVELTGRQSSEITRTITKLSFVKVDSHFRQGIPFFGQVRLVDGKGVPIPNKVIFIRGNEANYYSNATTDEHGLVQFSINTTNVMGTSLTVRVNYKDRSPCYGYQWVSEEHEEAHHTAYLVFSPSKSFVHLEPMSHELPCGHTQTVQAHYILNGGTLLGLKKLSFYYLIMAKGGIVRTGTHGLLVKQEDMKGHFSISIPVKSDIAPVARLLIYAVLPTGDVIGDSAKYDVENCLANKVDLSFSPSQSLPASHAHLRVTAAPQSVCALRAVDQSVLLMKPDAELSASSVYNLLPEKDLTGFPGPLNDQDNEDCINRHNVYINGITYTPVSSTNEKDMYSFLEDMGLKAFTNSKIRKPKMCPQLQQYEMHGPEGLRVGFYESDVMGRGHARLVHVEEPHTETVRKYFPETWIWDLVVVNSAGVAEVGVTVPDTITEWKAGAFCLSEDAGLGISSTASLRAFQPFFVELTMPYSVIRGEAFTLKATVLNYLPKCIRVSVQLEASPAFLAVPVEKEQAPHCICANGRQTVSWAVTPKSLGNVNFTVSAEALESQELCGTEVPSVPEHGRKDTVIKPLLVEPEGLEKETTFNSLLCPSGGEVSEELSLKLPPNVVEESARASVSVLGDILGSAMQNTQNLLQMPYGCGEQNMVLFAPNIYVLDYLNETQQLTPEIKSKAIGYLNTGYQRQLNYKHYDGSYSTFGERYGRNQGNTWLTAFVLKTFAQARAYIFIDEAHITQALIWLSQRQKDNGCFRSSGSLLNNAIKGGVEDEVTLSAYITIALLEIPLTVTHPVVRNALFCLESAWKTAQEGDHGSHVYTKALLAYAFALAGNQDKRKEVLKSLNEEAVKKDNSVHWERPQKPKAPVGHFYEPQAPSAEVEMTSYVLLAYLTAQPAPTSEDLTSATNIVKWITKQQNAQGGFSSTQDTVVALHALSKYGAATFTRTGKAAQVTIQSSGTFSSKFQVDNNNRLLLQQVSLPELPGEYSMKVTGEGCVYLQTSLKYNILPEKEEFPFALGVQTLPQTCDEPKAHTSFQISLSVSYTGSRSASNMAIVDVKMVSGFIPLKPTVKMLERSNHVSRTEVSSNHVLIYLDKVSNQTLSLFFTVLQDVPVRDLKPAIVKVYDYYETDEFAIAEYNAPCSKDLGNA
B8: Corneodesmosin (protein, UniProt Q15517 33-529)
chain: KSIGTFSDPCKDPTRITSPNDPCLTGKGDSSGFSSYSGSSSSGSSISSARSSGGGSSGSSSGSSIAQGGSAGSFKPGTGYSQVSYSSGSGSSLQGASGSSQLGSSSSHSGNSGSHSGSSSSHSSSSSSFQFSSSSFQVGNGSALPTNDNSYRGILNPSQPGQSSSSSQTFGVSSSGQSVSSNQRPCSSDIPDSPCSGGPIVSHSGPYIPSSHSVSGGQRPVVVVVDQHGSGAPGVVQGPPCSNGGLPGKPCPPITSVDKSYGGYEVVGGSSDSYLVPGMTYSKGKIYPVGYFTKENPVKGSPGVPSFAAGPPISEGKYFSSNPIIPSQSAASSAIAFQPVGTGGVQLCGGGSTGSKGPCSPSSSRVPSSSSISSSSGLPYHPCGSASQSPCSPPGTGSFSSSSSSQSSGKIILQPCGSKSSSSGHPCMSVSSLTLTGGPDGSPHPDPSAGAKPCGSSSAGKIPCRSIRDILAQVKPLGPQLADPEVFLPQGELLNSP
B9: Short-chain dehydrogenase/reductase family 9C member 7 (protein, UniProt Q8NEX9 1-313)
chain: MAALTDLSFMYRWFKNCNLVGNLSEKYVFITGCDSGFGNLLAKQLVDRGMQVLAACFTEEGSQKLQRDTSYRLQTTLLDVTKSESIKAAAQWVRDKVGEQGLWALVNNAGVGLPSGPNEWLTKDDFVKVINVNLVGLIEVTLHMLPMVKRARGRVVNMSSSGGRVAVIGGGYCVSKFGVEAFSDSIRRELYYFGVKVCIIEPGNYRTAILGKENLESRMRKLWERLPQETRDSYGEDYFRIYTDKLKNIMQVAEPRVRDVINSMEHAIVSRSPRIRYNPGLDAKLLYIPLAKLPTPVTDFILSRYLPRPADSV

Target: Complement factor C3a/C3 (human (endogenous in serum))
Test: affinity purification with mass spectrometry; precleared human serum recirculated at 4 °C over 3F7E2-mAb coupled to cyanogen bromide Sepharose; washes with Triton X-100, sodium deoxycholate and 0.5 M NaCl at pH 8.0 and 9.0; elution with 50 mM TEA pH 11.3; reducing SDS-PAGE, whole lane to nanoLC-MS; haptoglobin column (3A8-mAb) as control; hits: >10-fold enriched, p < 0.05, three technical replicates

| Binder | binding |
| --- | --- |
| B1 | binds |
| B2 | binds |
| B3 | binds |
| B4 | binds |
| B5 | binds |
| B6 | binds |
| B7 | binds |
| B8 | binds |
| B9 | binds |
